Source: PMC10787506

Sequences of proteins named here, by UniProt entry; tags and fusion partners are left off.
UniProt Q7Z6Z7: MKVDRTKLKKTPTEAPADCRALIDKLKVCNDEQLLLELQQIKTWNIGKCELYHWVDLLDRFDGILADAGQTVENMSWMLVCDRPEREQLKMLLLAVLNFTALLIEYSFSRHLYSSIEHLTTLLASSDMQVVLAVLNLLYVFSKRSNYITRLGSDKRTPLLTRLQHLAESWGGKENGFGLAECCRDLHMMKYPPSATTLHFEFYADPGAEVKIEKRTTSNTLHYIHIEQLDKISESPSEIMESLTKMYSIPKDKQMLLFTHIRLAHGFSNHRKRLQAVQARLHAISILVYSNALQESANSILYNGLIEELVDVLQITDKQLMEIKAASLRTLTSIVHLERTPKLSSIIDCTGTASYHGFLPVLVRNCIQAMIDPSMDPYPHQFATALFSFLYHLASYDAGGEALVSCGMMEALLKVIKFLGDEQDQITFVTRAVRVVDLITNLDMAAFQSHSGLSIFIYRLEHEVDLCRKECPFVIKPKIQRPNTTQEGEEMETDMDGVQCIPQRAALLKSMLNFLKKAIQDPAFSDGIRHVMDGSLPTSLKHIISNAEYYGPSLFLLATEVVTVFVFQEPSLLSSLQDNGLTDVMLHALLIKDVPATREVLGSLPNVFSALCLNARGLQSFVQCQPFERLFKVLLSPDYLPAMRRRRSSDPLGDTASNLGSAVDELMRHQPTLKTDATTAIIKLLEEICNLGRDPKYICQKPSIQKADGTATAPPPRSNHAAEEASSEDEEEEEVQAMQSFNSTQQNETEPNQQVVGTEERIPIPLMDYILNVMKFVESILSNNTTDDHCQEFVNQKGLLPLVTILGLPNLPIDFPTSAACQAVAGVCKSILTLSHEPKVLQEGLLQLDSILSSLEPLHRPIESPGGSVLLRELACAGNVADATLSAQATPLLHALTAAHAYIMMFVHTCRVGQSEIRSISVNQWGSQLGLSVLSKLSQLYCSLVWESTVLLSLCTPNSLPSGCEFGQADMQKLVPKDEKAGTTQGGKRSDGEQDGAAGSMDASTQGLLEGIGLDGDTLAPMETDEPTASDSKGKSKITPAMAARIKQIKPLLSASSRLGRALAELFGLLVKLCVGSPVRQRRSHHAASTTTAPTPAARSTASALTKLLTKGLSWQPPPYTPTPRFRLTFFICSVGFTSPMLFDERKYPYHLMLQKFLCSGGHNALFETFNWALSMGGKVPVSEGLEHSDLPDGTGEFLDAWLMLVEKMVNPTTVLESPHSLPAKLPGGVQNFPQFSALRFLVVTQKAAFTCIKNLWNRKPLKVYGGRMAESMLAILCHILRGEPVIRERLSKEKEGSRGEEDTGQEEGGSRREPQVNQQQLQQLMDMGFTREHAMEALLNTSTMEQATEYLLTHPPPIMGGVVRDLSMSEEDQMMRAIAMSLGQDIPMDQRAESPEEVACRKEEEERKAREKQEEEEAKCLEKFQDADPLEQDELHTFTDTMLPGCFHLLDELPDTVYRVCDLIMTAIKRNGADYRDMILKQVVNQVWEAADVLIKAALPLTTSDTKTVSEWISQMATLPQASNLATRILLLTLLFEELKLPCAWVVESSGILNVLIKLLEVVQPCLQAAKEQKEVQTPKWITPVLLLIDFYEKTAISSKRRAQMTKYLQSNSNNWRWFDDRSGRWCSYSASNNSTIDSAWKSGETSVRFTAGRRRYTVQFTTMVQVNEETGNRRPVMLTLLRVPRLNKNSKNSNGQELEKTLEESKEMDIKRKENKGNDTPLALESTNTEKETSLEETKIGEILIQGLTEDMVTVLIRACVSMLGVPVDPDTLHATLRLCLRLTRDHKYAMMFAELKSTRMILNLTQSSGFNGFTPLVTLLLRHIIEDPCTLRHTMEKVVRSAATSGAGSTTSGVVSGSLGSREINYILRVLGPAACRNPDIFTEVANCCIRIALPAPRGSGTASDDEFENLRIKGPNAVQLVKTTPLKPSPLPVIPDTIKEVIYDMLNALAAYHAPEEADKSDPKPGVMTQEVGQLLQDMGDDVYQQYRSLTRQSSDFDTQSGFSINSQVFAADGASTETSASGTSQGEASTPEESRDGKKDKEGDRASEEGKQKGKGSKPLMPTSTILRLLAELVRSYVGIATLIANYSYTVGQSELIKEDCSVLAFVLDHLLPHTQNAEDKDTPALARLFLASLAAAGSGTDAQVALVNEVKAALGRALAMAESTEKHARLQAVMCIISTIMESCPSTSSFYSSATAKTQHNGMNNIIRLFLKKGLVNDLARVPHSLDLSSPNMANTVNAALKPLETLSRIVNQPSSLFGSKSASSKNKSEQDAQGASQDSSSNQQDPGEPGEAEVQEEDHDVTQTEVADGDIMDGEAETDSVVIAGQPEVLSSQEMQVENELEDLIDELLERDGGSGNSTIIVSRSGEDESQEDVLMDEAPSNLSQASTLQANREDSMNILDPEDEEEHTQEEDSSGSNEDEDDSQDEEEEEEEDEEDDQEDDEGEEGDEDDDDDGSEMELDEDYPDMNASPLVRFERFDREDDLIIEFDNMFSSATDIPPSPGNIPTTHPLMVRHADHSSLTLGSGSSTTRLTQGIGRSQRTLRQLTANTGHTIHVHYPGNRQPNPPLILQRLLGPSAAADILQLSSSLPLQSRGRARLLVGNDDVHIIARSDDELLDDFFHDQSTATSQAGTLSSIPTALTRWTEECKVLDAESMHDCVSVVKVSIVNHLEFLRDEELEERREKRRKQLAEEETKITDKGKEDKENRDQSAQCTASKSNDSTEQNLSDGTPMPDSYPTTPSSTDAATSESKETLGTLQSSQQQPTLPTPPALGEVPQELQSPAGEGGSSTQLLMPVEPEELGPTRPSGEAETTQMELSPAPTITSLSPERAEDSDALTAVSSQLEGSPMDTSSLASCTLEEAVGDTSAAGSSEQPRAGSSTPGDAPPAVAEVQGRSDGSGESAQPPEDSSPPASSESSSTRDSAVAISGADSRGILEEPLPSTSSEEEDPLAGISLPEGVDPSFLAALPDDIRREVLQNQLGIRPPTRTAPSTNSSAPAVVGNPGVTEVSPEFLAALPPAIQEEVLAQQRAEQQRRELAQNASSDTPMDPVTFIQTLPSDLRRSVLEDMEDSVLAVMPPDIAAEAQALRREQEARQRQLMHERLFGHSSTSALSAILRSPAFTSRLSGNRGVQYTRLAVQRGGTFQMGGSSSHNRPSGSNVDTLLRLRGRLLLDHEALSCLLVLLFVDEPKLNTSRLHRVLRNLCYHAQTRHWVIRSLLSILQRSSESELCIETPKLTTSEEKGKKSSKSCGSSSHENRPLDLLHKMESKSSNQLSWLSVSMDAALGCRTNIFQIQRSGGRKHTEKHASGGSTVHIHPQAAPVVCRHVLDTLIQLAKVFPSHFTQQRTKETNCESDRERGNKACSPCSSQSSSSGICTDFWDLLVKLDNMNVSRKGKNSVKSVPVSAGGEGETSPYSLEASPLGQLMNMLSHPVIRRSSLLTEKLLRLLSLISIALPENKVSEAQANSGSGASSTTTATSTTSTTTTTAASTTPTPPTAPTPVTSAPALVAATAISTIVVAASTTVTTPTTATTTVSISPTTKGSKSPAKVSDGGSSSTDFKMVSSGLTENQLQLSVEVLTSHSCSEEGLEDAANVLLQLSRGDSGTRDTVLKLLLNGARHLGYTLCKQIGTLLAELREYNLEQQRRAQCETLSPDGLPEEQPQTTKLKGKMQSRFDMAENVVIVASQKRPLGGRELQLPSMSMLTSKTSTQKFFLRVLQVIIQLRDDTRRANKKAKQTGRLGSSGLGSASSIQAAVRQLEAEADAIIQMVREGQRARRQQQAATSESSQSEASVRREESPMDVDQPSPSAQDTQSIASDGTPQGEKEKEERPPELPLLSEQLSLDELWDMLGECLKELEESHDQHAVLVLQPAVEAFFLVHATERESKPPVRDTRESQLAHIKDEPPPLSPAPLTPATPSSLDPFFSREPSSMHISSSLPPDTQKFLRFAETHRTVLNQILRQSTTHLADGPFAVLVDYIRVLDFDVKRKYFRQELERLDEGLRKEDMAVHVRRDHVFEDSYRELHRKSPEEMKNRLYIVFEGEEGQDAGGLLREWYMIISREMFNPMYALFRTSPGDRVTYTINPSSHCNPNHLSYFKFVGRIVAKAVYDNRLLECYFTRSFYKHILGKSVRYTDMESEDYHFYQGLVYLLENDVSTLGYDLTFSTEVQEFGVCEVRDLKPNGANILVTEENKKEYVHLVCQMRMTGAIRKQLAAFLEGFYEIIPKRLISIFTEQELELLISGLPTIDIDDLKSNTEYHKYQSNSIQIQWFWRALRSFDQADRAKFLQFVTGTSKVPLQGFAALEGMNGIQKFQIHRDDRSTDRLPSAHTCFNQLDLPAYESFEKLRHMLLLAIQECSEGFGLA
UniProt P19474: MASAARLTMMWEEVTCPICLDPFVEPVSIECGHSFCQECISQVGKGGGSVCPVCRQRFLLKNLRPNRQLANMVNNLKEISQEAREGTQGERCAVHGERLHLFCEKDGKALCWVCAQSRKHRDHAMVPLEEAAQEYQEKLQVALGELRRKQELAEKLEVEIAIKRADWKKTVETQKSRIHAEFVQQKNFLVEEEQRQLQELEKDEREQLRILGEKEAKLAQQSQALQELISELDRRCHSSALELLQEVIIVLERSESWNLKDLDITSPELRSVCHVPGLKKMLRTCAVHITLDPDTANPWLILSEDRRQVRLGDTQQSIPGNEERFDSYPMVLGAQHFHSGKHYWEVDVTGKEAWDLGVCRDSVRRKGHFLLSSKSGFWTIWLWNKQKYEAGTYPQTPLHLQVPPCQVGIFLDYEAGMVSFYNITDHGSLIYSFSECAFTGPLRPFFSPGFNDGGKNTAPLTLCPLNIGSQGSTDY
UniProt Q14258: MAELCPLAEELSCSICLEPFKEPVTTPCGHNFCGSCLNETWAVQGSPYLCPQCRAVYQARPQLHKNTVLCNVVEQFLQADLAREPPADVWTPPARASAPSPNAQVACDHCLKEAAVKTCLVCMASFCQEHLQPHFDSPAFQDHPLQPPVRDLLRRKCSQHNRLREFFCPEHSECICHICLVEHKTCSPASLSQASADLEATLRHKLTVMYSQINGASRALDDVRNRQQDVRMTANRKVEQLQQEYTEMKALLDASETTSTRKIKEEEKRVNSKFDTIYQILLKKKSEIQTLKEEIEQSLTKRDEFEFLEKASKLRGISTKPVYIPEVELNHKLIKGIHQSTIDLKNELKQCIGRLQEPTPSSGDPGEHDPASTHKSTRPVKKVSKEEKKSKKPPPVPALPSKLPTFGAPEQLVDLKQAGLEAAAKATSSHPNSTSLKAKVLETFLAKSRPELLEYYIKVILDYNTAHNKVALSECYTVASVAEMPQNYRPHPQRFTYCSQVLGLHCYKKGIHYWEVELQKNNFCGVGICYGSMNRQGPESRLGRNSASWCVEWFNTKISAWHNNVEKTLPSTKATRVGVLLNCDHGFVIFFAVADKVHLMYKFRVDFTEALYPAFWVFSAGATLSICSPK
UniProt P45974: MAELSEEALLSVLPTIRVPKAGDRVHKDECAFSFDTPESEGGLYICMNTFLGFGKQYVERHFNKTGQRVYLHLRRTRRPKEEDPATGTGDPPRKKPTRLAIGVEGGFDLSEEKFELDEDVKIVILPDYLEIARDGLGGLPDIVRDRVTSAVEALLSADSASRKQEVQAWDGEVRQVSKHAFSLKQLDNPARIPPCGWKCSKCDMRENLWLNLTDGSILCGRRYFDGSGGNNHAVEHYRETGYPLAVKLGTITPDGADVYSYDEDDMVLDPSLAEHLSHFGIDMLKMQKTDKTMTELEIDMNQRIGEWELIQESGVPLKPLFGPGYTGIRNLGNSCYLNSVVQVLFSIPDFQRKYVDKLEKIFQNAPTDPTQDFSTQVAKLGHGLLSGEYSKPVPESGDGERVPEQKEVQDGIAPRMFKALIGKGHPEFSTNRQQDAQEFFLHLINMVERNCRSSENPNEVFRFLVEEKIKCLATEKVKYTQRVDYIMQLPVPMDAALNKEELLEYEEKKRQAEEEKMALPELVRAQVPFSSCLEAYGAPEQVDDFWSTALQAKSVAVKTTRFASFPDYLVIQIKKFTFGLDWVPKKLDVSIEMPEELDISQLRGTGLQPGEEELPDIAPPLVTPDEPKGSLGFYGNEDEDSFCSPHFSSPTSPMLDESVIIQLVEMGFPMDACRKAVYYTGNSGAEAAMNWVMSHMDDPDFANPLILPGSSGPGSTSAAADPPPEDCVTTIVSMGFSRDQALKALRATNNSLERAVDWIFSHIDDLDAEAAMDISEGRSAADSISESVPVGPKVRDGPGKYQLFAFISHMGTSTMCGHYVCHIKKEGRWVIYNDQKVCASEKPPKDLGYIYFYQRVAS

What follows are substances tested against T1, ATP-dependent 6-phosphofructokinase, platelet type (human (endogenous in MDA-MB-231 and SUM-159)) (UniProt Q01813) (assay: affinity purification with mass spectrometry; Co-IP of PFKP from MDA-MB-231 cells followed by mass spectrometry-based protein identification).
T1 sequence: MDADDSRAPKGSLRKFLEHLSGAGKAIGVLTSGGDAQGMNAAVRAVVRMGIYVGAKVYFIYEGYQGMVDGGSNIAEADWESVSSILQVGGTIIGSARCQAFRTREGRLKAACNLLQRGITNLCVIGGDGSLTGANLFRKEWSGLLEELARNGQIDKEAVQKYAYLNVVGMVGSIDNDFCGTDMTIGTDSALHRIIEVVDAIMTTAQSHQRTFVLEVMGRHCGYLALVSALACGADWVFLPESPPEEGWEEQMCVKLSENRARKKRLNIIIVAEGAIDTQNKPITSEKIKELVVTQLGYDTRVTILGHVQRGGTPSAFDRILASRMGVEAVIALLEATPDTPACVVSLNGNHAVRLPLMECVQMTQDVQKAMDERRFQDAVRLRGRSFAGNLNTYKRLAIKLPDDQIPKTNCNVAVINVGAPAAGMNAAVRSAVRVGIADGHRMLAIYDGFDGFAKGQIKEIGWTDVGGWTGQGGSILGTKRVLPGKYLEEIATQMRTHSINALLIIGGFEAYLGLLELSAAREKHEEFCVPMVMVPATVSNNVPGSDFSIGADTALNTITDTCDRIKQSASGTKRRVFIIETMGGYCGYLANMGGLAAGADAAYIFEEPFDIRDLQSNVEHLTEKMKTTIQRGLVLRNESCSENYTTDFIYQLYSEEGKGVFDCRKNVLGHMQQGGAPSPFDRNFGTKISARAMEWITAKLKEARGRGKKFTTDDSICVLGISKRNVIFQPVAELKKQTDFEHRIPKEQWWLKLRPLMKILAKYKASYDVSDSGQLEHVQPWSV

binding, binds:
HECT, UBA and WWE domain-containing protein 1 (from UniProt Q7Z6Z7 1-4374) (enzyme)
Tripartite motif-containing protein 21 (from UniProt P19474 1-475) (enzyme)
Tripartite motif-containing protein 25 (from UniProt Q14258 1-630) (enzyme)
Ubiquitin carboxyl-terminal hydrolase 5 (from UniProt P45974 1-858) (enzyme)

No constants are given. Whether binding was seen depends on the method and setting. In cells and extracts the contact can be indirect. These calls come from enrichment with a bait or labelling near it, and not all partners need be listed.
